Reference: the supplement of paper PMC6411743
± gives the standard deviation of the averaged measurements. This is one part of the list.

The chains behind the UniProt entries cited, without tags or fusion partners. Where a name states a change or a piece, a line headed by the entry shows the natural chain unless it says otherwise.
UniProt P49427: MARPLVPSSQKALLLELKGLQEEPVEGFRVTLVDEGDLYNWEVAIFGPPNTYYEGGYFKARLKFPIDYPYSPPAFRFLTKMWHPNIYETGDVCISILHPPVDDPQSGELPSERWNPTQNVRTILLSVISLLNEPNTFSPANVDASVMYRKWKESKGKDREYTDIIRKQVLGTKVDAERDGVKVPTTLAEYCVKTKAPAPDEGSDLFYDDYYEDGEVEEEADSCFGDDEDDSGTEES
UniProt P47897: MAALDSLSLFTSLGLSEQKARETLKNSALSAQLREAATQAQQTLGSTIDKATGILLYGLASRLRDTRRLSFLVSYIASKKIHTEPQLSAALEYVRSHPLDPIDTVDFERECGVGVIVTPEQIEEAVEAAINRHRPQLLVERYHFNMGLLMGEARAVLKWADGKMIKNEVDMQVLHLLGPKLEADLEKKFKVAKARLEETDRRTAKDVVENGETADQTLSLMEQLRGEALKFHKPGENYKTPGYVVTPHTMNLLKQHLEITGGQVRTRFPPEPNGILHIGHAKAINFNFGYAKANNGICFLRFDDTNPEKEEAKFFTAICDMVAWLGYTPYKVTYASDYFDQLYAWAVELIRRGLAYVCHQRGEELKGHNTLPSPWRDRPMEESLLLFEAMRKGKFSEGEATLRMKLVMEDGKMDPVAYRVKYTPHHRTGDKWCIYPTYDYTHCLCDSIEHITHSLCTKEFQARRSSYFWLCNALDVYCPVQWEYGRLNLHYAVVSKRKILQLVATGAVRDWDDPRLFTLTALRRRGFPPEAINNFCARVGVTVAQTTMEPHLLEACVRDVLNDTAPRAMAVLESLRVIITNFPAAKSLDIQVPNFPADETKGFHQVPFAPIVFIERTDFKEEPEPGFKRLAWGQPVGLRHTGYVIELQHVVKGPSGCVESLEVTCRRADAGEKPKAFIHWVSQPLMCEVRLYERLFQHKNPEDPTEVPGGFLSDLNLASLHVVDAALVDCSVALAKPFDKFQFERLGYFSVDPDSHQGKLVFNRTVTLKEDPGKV
UniProt P30281: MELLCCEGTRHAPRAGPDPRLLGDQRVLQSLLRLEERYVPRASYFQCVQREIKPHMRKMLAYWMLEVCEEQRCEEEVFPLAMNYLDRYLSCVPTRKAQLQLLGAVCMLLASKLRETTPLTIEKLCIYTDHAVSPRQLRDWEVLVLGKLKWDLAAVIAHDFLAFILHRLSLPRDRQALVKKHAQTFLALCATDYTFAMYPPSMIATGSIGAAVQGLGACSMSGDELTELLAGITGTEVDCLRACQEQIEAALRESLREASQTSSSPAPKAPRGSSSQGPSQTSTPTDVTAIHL
UniProt P31150: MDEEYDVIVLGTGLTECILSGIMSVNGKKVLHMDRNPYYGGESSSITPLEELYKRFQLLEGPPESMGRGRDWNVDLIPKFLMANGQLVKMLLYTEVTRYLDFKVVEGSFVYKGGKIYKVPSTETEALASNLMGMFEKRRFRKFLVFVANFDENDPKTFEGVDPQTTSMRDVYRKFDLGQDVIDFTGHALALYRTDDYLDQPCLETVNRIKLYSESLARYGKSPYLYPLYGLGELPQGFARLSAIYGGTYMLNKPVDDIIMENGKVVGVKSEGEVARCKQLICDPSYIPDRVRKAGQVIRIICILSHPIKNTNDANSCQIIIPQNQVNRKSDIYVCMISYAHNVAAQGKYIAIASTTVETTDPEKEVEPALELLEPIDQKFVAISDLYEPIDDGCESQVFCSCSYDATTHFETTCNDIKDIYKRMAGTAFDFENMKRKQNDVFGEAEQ
UniProt P46926: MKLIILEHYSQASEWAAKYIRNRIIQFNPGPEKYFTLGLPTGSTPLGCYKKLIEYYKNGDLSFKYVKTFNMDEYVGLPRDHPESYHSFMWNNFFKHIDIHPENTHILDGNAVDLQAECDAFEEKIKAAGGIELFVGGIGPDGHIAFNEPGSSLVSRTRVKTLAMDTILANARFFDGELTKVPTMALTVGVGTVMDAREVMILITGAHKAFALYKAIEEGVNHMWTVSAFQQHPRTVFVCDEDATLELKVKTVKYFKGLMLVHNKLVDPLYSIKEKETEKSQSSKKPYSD
UniProt P30086: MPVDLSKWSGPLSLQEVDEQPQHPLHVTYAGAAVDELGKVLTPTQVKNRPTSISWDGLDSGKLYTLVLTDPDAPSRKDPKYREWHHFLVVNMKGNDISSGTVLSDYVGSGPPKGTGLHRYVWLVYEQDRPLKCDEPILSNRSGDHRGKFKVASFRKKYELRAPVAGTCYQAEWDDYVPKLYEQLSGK
UniProt P28161: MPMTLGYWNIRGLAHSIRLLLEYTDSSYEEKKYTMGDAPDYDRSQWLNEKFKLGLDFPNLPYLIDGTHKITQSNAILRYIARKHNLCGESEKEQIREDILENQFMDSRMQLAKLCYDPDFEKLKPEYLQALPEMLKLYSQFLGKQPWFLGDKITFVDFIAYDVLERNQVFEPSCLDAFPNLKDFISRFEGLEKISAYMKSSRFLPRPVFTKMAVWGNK
UniProt P42226: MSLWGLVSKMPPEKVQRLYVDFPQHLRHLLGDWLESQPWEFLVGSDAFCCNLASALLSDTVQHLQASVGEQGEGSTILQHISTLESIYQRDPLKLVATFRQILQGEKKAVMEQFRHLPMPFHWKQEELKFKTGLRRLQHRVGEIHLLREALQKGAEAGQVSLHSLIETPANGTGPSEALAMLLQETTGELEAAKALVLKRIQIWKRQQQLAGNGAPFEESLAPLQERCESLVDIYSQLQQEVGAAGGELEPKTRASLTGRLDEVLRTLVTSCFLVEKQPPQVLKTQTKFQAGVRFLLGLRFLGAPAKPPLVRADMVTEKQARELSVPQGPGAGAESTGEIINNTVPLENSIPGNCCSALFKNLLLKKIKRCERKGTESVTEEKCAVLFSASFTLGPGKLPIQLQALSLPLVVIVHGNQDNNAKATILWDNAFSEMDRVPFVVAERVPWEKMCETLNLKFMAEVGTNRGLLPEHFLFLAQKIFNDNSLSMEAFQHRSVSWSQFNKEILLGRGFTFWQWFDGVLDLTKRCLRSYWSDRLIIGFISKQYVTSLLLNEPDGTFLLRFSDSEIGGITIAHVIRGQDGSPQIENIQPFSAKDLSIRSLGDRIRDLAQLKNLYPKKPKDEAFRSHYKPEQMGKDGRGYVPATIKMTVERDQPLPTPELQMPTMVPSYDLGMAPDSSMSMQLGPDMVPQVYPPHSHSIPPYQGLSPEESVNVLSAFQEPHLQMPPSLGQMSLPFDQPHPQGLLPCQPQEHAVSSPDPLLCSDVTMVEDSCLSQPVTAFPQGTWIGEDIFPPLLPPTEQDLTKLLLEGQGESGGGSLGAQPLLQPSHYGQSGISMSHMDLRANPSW
UniProt P46100: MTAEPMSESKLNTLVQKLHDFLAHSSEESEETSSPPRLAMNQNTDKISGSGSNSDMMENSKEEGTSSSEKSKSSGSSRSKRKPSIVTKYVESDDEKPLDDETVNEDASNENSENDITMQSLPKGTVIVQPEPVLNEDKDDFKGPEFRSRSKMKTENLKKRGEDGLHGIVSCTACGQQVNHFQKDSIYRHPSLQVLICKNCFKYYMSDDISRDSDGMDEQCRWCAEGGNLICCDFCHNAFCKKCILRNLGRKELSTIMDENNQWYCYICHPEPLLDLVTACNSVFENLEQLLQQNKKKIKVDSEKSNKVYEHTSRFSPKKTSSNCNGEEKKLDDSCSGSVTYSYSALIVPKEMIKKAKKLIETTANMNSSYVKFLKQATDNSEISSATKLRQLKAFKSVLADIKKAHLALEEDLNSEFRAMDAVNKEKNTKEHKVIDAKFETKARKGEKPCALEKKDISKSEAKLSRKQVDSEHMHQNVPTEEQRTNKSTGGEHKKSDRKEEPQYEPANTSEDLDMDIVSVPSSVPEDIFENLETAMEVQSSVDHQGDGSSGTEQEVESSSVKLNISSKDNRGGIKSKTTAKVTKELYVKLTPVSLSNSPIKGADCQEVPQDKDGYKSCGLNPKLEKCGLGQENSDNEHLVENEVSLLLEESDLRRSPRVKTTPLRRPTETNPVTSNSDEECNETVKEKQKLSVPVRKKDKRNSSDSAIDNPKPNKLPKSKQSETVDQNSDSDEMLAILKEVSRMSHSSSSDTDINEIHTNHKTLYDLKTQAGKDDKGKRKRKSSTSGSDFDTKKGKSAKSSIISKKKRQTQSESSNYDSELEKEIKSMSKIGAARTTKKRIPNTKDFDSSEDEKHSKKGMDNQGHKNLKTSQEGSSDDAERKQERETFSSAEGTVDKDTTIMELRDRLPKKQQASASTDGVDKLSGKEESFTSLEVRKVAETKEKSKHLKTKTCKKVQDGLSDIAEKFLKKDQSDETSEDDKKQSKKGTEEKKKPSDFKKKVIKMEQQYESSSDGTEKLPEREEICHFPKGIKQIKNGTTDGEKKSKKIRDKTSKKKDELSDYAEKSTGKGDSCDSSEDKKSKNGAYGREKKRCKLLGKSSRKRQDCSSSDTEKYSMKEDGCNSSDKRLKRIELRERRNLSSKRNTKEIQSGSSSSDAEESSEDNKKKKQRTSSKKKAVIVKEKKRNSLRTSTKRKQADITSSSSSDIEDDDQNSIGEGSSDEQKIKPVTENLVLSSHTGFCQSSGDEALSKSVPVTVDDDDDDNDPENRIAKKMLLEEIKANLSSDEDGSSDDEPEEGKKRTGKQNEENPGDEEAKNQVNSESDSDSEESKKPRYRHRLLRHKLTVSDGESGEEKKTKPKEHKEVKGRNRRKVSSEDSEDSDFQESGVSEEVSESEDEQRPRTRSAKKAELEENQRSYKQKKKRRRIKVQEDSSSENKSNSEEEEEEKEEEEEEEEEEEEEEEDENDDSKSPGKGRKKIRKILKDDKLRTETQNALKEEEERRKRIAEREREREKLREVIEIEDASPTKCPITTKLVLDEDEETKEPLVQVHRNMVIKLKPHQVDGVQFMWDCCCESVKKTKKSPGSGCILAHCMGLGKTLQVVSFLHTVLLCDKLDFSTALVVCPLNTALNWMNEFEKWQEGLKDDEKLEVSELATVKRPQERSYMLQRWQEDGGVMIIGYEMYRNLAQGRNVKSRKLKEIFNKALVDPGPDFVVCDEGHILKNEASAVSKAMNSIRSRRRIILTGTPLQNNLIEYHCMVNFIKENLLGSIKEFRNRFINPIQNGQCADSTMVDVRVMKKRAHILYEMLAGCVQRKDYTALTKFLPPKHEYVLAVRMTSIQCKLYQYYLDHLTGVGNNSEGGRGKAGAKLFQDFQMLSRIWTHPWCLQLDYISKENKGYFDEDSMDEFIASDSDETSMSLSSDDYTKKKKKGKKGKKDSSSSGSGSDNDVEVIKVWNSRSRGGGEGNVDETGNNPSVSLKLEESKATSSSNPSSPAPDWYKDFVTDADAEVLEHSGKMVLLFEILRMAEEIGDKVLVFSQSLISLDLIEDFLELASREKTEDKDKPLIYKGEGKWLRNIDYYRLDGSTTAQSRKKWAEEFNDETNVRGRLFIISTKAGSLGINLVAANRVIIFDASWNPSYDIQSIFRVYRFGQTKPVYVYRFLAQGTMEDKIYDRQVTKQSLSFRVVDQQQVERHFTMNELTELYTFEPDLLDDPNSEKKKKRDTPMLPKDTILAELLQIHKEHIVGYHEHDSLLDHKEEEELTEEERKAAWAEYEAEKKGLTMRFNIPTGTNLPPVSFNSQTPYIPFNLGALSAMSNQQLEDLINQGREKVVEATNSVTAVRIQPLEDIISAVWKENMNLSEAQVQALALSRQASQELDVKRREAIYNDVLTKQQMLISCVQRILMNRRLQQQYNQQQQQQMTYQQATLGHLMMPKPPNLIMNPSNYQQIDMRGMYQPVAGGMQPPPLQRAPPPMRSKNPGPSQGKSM
UniProt P36404: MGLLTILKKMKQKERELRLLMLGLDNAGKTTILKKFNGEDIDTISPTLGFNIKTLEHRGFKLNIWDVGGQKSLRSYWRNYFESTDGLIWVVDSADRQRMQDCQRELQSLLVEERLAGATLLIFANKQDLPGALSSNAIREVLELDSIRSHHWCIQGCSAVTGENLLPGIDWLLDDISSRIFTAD
UniProt P34897: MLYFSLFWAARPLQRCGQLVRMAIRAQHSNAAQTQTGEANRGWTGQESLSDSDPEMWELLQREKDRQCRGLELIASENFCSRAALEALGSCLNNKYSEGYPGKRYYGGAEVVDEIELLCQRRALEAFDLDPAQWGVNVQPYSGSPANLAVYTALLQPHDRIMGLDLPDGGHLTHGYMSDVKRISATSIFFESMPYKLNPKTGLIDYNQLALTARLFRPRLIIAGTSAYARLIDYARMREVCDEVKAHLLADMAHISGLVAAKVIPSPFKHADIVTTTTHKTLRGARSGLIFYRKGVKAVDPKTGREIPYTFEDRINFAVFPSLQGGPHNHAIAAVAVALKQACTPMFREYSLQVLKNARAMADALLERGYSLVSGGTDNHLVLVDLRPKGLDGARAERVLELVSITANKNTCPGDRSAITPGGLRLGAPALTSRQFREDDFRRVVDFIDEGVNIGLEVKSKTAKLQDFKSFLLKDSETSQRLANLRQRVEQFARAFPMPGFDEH

Compound: Nc1nc2c(ncn2[C@@H]2O[C@H](COP(=O)(O)OP(=O)(O)OP(=O)(O)O)[C@@H](O)[C@H]2O)c(=O)[nH]1 [guanosine triphosphate]
Test: NP40-soluble protein abundance relative to vehicle (solubility fold change) (ratio); higher = more soluble protein in presence of GTP
Procedure, shortened: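 Values are fold changes against the detergent-processed vehicle, based on vsn-normalised intensities. Jurkat crude lysate was treated at eight concentrations from 0.1 to 10 mM (10 min at room temperature, then 3 min at 37 °C), solubilised with 0.8% NP40 and benzonase, ultracentrifuged and analysed by TMT-labelled LC-MS/MS over three independent experiments.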

Target: CDC34 (UniProt P49427)
- NP40-soluble protein abundance (concentration: 0.1mM): 1.69 ± 0.2
- NP40-soluble protein abundance (concentration: 0.5mM): 1.07 ± 0.037
- NP40-soluble protein abundance (concentration: 1mM): 1.79 ± 0.077
- NP40-soluble protein abundance (concentration: 2mM): 1.15 ± 0.11
- NP40-soluble protein abundance (concentration: 4mM): 1.16 ± 0.092
- NP40-soluble protein abundance (concentration: 6mM): 1.12 ± 0.1
- NP40-soluble protein abundance (concentration: 8mM): 1.01 ± 0.078
- NP40-soluble protein abundance (concentration: 10mM): 1.06 ± 0.084

Target: QARS (UniProt P47897)
- NP40-soluble protein abundance (concentration: 0.1mM): 1.08 ± 0.075
- NP40-soluble protein abundance (concentration: 0.5mM): 1.14 ± 0.14
- NP40-soluble protein abundance (concentration: 1mM): 1.08 ± 0.15
- NP40-soluble protein abundance (concentration: 2mM): 1.17 ± 0.24
- NP40-soluble protein abundance (concentration: 4mM): 1.22 ± 0.26
- NP40-soluble protein abundance (concentration: 6mM): 1.18 ± 0.28
- NP40-soluble protein abundance (concentration: 8mM): 1.17 ± 0.22
- NP40-soluble protein abundance (concentration: 10mM): 1.14 ± 0.25

Target: UniProt P30281 and related entries
- NP40-soluble protein abundance (concentration: 0.1mM): 1.05 ± 0.078
- NP40-soluble protein abundance (concentration: 0.5mM): 1.03 ± 0.06
- NP40-soluble protein abundance (concentration: 1mM): 0.889 ± 0.03
- NP40-soluble protein abundance (concentration: 2mM): 0.941 ± 0.02
- NP40-soluble protein abundance (concentration: 4mM): 0.922 ± 0.032
- NP40-soluble protein abundance (concentration: 6mM): 0.884 ± 0.0096
- NP40-soluble protein abundance (concentration: 8mM): 0.832 ± 0.02
- NP40-soluble protein abundance (concentration: 10mM): 0.863 ± 0.06

Target: GDI1 (UniProt P31150)
- NP40-soluble protein abundance (concentration: 0.1mM): 1.04 ± 0.056
- NP40-soluble protein abundance (concentration: 0.5mM): 1.01 ± 0.06
- NP40-soluble protein abundance (concentration: 1mM): 0.946 ± 0.032
- NP40-soluble protein abundance (concentration: 2mM): 0.947 ± 0.072
- NP40-soluble protein abundance (concentration: 4mM): 0.94 ± 0.059
- NP40-soluble protein abundance (concentration: 6mM): 0.909 ± 0.041
- NP40-soluble protein abundance (concentration: 8mM): 0.871 ± 0.051
- NP40-soluble protein abundance (concentration: 10mM): 0.863 ± 0.088

Target: DNAJA1 (UniProt P31689)
- NP40-soluble protein abundance (concentration: 0.1mM): 0.964 ± 0.075
- NP40-soluble protein abundance (concentration: 0.5mM): 1.02 ± 0.072
- NP40-soluble protein abundance (concentration: 1mM): 1.02 ± 0.1
- NP40-soluble protein abundance (concentration: 2mM): 1.04 ± 0.086
- NP40-soluble protein abundance (concentration: 4mM): 1.05 ± 0.096
- NP40-soluble protein abundance (concentration: 6mM): 1.07 ± 0.097
- NP40-soluble protein abundance (concentration: 8mM): 1.07 ± 0.1
- NP40-soluble protein abundance (concentration: 10mM): 1.03 ± 0.071

Target: GNPDA1 (UniProt P46926)
- NP40-soluble protein abundance (concentration: 0.1mM): 1.05 ± 0.035
- NP40-soluble protein abundance (concentration: 0.5mM): 1.03 ± 0.099
- NP40-soluble protein abundance (concentration: 1mM): 0.951 ± 0.041
- NP40-soluble protein abundance (concentration: 2mM): 0.933 ± 0.094
- NP40-soluble protein abundance (concentration: 4mM): 0.915 ± 0.043
- NP40-soluble protein abundance (concentration: 6mM): 0.91 ± 0.061
- NP40-soluble protein abundance (concentration: 8mM): 0.8707 ± 0.0069
- NP40-soluble protein abundance (concentration: 10mM): 0.817 ± 0.04

Target: PEBP1 (UniProt P30086)
- NP40-soluble protein abundance (concentration: 0.1mM): 0.879 ± 0.07
- NP40-soluble protein abundance (concentration: 0.5mM): 0.901 ± 0.094
- NP40-soluble protein abundance (concentration: 1mM): 0.889 ± 0.099
- NP40-soluble protein abundance (concentration: 2mM): 0.832 ± 0.1
- NP40-soluble protein abundance (concentration: 4mM): 0.829 ± 0.13
- NP40-soluble protein abundance (concentration: 6mM): 0.848 ± 0.1
- NP40-soluble protein abundance (concentration: 8mM): 0.825 ± 0.1
- NP40-soluble protein abundance (concentration: 10mM): 0.827 ± 0.13

Target: UniProt P28482
- NP40-soluble protein abundance (concentration: 0.1mM): 0.997 ± 0.047
- NP40-soluble protein abundance (concentration: 0.5mM): 1 ± 0.037
- NP40-soluble protein abundance (concentration: 1mM): 0.94 ± 0.058
- NP40-soluble protein abundance (concentration: 2mM): 0.919 ± 0.059
- NP40-soluble protein abundance (concentration: 4mM): 0.899 ± 0.064
- NP40-soluble protein abundance (concentration: 6mM): 0.909 ± 0.06
- NP40-soluble protein abundance (concentration: 8mM): 0.899 ± 0.08
- NP40-soluble protein abundance (concentration: 10mM): 0.852 ± 0.08

Target: GSTM2 (UniProt P28161)
- NP40-soluble protein abundance (concentration: 0.1mM): 1.03 ± 0.058
- NP40-soluble protein abundance (concentration: 0.5mM): 0.947 ± 0.051
- NP40-soluble protein abundance (concentration: 1mM): 1 ± 0.1
- NP40-soluble protein abundance (concentration: 2mM): 0.976 ± 0.085
- NP40-soluble protein abundance (concentration: 4mM): 0.956 ± 0.1
- NP40-soluble protein abundance (concentration: 6mM): 0.932 ± 0.11
- NP40-soluble protein abundance (concentration: 8mM): 0.886 ± 0.091
- NP40-soluble protein abundance (concentration: 10mM): 0.899 ± 0.12

Target: RPL12 (UniProt P30050)
- NP40-soluble protein abundance (concentration: 0.1mM): 0.935 ± 0.018
- NP40-soluble protein abundance (concentration: 0.5mM): 0.946 ± 0.039
- NP40-soluble protein abundance (concentration: 1mM): 1.01 ± 0.059
- NP40-soluble protein abundance (concentration: 2mM): 0.919 ± 0.043
- NP40-soluble protein abundance (concentration: 4mM): 0.845 ± 0.079
- NP40-soluble protein abundance (concentration: 6mM): 0.823 ± 0.093
- NP40-soluble protein abundance (concentration: 8mM): 0.727 ± 0.12
- NP40-soluble protein abundance (concentration: 10mM): 0.828 ± 0.1

Target: MCM2 (UniProt P49736)
- NP40-soluble protein abundance (concentration: 0.1mM): 1.01 ± 0.052
- NP40-soluble protein abundance (concentration: 0.5mM): 1.07 ± 0.071
- NP40-soluble protein abundance (concentration: 1mM): 0.975 ± 0.074
- NP40-soluble protein abundance (concentration: 2mM): 0.985 ± 0.099
- NP40-soluble protein abundance (concentration: 4mM): 0.974 ± 0.1
- NP40-soluble protein abundance (concentration: 6mM): 0.983 ± 0.1
- NP40-soluble protein abundance (concentration: 8mM): 0.944 ± 0.083
- NP40-soluble protein abundance (concentration: 10mM): 0.929 ± 0.074

Target: UniProt P42226 and related entries
- NP40-soluble protein abundance (concentration: 0.1mM): 1 ± 0.051
- NP40-soluble protein abundance (concentration: 0.5mM): 0.988 ± 0.054
- NP40-soluble protein abundance (concentration: 1mM): 0.96 ± 0.019
- NP40-soluble protein abundance (concentration: 2mM): 0.937 ± 0.041
- NP40-soluble protein abundance (concentration: 4mM): 0.928 ± 0.025
- NP40-soluble protein abundance (concentration: 6mM): 0.896 ± 0.026
- NP40-soluble protein abundance (concentration: 8mM): 0.952 ± 0.031
- NP40-soluble protein abundance (concentration: 10mM): 0.896 ± 0.049

Target: ATRX (UniProt P46100)
- NP40-soluble protein abundance (concentration: 0.1mM): 0.951 ± 0.068
- NP40-soluble protein abundance (concentration: 0.5mM): 0.944 ± 0.065
- NP40-soluble protein abundance (concentration: 1mM): 1.01 ± 0.051
- NP40-soluble protein abundance (concentration: 2mM): 0.995 ± 0.066
- NP40-soluble protein abundance (concentration: 4mM): 1.04 ± 0.036
- NP40-soluble protein abundance (concentration: 6mM): 1.05 ± 0.031
- NP40-soluble protein abundance (concentration: 8mM): 1.12 ± 0.063
- NP40-soluble protein abundance (concentration: 10mM): 1.14 ± 0.099

Target: ARL2 (UniProt P36404)
- NP40-soluble protein abundance (concentration: 0.1mM): 1.04 ± 0.03
- NP40-soluble protein abundance (concentration: 0.5mM): 1.02 ± 0.037
- NP40-soluble protein abundance (concentration: 1mM): 0.959 ± 0.024
- NP40-soluble protein abundance (concentration: 2mM): 1.01 ± 0.047
- NP40-soluble protein abundance (concentration: 4mM): 0.983 ± 0.014
- NP40-soluble protein abundance (concentration: 6mM): 0.92 ± 0.015
- NP40-soluble protein abundance (concentration: 8mM): 0.952 ± 0.052
- NP40-soluble protein abundance (concentration: 10mM): 0.9 ± 0.05

Target: UniProt P34897 and related entries
- NP40-soluble protein abundance (concentration: 0.1mM): 1.05 ± 0.04
- NP40-soluble protein abundance (concentration: 0.5mM): 1.04 ± 0.061
- NP40-soluble protein abundance (concentration: 1mM): 0.958 ± 0.058
- NP40-soluble protein abundance (concentration: 2mM): 0.964 ± 0.059
- NP40-soluble protein abundance (concentration: 4mM): 0.981 ± 0.05
- NP40-soluble protein abundance (concentration: 6mM): 0.935 ± 0.06
- NP40-soluble protein abundance (concentration: 8mM): 0.919 ± 0.029
- NP40-soluble protein abundance (concentration: 10mM): 0.8893 ± 0.0077
